In paper PMC4778861, “Type One Protein Phosphatase 1 and Its Regulatory Protein Inhibitor 2 Negatively Regulate ABA Signaling” (PLoS Genetics, 2016):
Where two headings read alike, the source gives them in different places. No constants are given. Whether binding was seen depends on the method and setting. For part of these data: In cells and extracts the contact can be indirect. Some results given as binding are weak or reduced against the parent protein; the word gives no strength. Sequences can lack the tags named with a protein. Values belong to the molecule of their own block, whether it stands above or below them.

Sequences of proteins named here, by UniProt entry; tags and fusion partners are left off.
UniProt P30366: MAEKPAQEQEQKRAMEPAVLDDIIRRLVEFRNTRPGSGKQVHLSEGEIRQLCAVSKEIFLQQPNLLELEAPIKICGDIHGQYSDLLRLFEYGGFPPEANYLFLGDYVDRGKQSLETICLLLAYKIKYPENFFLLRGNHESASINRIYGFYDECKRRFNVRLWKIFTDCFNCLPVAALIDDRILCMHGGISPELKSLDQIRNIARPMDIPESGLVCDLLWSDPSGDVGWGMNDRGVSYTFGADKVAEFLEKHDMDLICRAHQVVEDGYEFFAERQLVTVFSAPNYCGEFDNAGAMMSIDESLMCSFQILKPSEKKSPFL
UniProt P49597: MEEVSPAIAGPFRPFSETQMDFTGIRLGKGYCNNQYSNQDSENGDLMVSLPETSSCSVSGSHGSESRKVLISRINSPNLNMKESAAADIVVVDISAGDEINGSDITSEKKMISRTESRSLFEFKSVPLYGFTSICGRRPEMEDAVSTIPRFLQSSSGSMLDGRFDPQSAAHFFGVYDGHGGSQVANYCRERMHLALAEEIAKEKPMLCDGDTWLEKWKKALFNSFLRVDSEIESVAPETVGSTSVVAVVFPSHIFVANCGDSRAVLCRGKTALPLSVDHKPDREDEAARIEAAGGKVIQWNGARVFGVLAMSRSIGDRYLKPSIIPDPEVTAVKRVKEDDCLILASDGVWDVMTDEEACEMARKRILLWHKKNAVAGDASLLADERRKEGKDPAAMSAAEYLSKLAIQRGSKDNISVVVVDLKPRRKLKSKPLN
UniProt P48482: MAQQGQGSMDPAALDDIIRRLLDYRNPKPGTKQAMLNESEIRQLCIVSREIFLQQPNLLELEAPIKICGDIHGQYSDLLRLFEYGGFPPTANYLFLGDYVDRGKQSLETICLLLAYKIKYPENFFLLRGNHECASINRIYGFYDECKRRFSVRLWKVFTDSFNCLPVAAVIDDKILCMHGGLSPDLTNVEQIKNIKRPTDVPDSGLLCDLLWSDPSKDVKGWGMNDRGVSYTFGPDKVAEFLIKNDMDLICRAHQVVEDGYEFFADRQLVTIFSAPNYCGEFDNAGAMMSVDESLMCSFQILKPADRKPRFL

Experiments:
[1] = target: T1, BD-SnRK2.6 (Arabidopsis thaliana) (UniProt Q940H6); test: two-hybrid; AD fusions (pGADT7) with BD fusions in S. cerevisiae AH109; growth on SD medium lacking Leu, Trp, His in the absence or presence of 10 uM ABA (the text does not tell the two apart); 1 mM 3-AT to reduce self-activation of BD-SnRK2s; 30°C
T1 sequence: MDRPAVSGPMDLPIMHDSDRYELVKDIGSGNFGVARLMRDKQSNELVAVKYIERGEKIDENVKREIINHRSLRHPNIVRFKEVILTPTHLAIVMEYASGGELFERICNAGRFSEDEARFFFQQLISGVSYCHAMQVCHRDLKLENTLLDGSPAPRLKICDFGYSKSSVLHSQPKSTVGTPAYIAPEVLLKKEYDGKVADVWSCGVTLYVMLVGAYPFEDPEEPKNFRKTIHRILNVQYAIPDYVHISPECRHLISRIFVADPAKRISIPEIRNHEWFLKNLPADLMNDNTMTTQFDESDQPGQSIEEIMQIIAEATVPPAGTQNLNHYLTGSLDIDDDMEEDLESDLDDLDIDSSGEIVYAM

[2] = target: T2, SnRK2.6 with MYC tag (Arabidopsis thaliana) (UniProt Q940H6); test: co-IP; co-transformed Arabidopsis protoplasts; lysate (50 mM Tris-HCl pH 7.4, 150 mM NaCl, 1 mM EDTA, 0.1% Triton X-100) with anti-HA-agarose or anti-MYC-agarose at 4°C; Western blot
T2 sequence: T1 sequence

[3] = target: T3, BD-SnRK2.2 (Arabidopsis thaliana) (UniProt Q39192); test: two-hybrid; AD fusions (pGADT7) with BD fusions in S. cerevisiae AH109; growth on SD medium lacking Leu, Trp, His in the absence or presence of 10 uM ABA (the text does not tell the two apart); 1 mM 3-AT to reduce self-activation of BD-SnRK2s; 30°C
T3 sequence: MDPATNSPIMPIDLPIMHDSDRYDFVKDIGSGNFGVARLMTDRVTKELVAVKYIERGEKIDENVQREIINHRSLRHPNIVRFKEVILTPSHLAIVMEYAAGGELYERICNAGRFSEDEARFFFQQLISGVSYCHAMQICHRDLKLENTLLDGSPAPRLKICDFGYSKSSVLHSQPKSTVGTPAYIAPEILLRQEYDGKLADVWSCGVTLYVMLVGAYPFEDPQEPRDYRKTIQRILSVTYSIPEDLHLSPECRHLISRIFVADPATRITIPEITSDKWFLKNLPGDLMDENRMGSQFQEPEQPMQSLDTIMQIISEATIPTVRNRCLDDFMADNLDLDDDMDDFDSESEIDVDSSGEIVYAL

[4] = target: T4, PYL11-nLUC (Arabidopsis thaliana) (UniProt Q9FJ50); test: split reporter; split-luciferase complementation; nLUC and cLUC fusions co-expressed in N. benthamiana leaves by Agrobacterium infiltration, LUC activity imaged after 2 days
T4 sequence: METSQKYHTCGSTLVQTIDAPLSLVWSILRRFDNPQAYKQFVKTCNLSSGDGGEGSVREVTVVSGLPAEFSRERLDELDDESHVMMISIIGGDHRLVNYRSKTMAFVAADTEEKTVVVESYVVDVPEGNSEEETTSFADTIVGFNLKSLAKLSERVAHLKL

[5] = target: T5, SnRK2.6-nLUC (Arabidopsis thaliana) (UniProt Q940H6); test: as above
T5 sequence: T1 sequence

[6] = target: T4, PYL11-nLUC (Arabidopsis thaliana); test: split reporter; split-luciferase complementation in N. benthamiana leaves with FLAG-AtI-2 co-expressed as a third protein
[7] = target: T5, SnRK2.6-nLUC (Arabidopsis thaliana); test: as above
[8] = target: T6, SnRK2.3-nLUC (Arabidopsis thaliana) (UniProt Q39193); test: split reporter; split-luciferase complementation; nLUC and cLUC fusions co-expressed in N. benthamiana leaves by Agrobacterium infiltration, LUC activity imaged after 2 days
T6 sequence: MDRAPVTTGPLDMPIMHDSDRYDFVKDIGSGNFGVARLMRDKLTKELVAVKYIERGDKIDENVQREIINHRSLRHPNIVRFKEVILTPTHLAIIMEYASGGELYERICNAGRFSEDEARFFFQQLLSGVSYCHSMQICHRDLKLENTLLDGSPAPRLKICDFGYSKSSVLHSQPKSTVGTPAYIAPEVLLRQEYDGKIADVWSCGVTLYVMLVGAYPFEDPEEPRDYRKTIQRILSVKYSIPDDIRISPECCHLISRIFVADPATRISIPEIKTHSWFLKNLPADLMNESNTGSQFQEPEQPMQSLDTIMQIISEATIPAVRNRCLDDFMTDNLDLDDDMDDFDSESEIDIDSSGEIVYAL

[9] = target: T7, SnRK2.2-nLUC (Arabidopsis thaliana) (UniProt Q39192); test: as above
T7 sequence: T3 sequence

[10] = target: T8, BD-PYL11 (Arabidopsis thaliana) (UniProt Q9FJ50); test: two-hybrid; AD fusions with BD-PYLs in S. cerevisiae AH109; growth on SD medium lacking Leu, Trp, His in the presence of 10 uM ABA
T8 sequence: T4 sequence

[11] = target: T9, BD-SnRK2.8 (Arabidopsis thaliana) (UniProt Q9M9E9); test: two-hybrid; AD fusions (pGADT7) with BD fusions in S. cerevisiae AH109; growth on SD medium lacking Leu, Trp, His in the absence or presence of 10 uM ABA (the text does not tell the two apart); 1 mM 3-AT to reduce self-activation of BD-SnRK2s; 30°C
T9 sequence: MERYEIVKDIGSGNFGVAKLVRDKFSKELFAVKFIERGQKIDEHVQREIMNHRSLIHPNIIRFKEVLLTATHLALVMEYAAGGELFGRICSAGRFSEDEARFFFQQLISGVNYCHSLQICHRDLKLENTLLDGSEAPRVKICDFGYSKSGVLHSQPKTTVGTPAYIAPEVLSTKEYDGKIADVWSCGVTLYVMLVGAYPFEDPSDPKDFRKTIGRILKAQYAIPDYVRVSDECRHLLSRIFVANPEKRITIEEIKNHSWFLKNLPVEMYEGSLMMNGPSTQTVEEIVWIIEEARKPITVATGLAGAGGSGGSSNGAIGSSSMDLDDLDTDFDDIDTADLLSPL

[12] = target: TOPP1 (two-hybrid partner of AD-AtI-2) (Arabidopsis thaliana) (UniProt P30366); test: as above
[13] = target: T1, BD-SnRK2.6 (Arabidopsis thaliana); test: as above; remark: listed apart in the source
[14] = target: T10, BD-SnRK2.3 (Arabidopsis thaliana) (UniProt Q39193); test: as above
T10 sequence: T6 sequence

[15] = target: T3, BD-SnRK2.2 (Arabidopsis thaliana); test: as above; remark: listed apart in the source
[16] = target: cLUC-TOPP1 (Arabidopsis thaliana) (UniProt P30366); test: split reporter; split-luciferase complementation; nLUC and cLUC fusions co-expressed in N. benthamiana leaves by Agrobacterium infiltration, LUC activity imaged after 2 days

Molecule: AD-ABI1 (from UniProt P49597 1-434) (enzyme)
binding [1]: binds

Molecule: TOPP1 (expressed in protoplasts for Co-IP) (from UniProt P30366 1-318) (enzyme)
binding [2]: binds

Molecule: cLUC-TOPP1 (from UniProt P30366 1-318) (enzyme)
binding [6]: binds
binding [7]: binds
binding [4]: binds
binding [5]: binds weakly
binding [8]: binds
binding [9]: binds

B2: cLUC-AtI-2 (protein, UniProt Q9LTK0 1-191)
chain: MTEPKRGRVQWDEANIVEIESNKPVRQKITEPKTPYHPMMDDDGSLSPRGRAFDECVDDMQRAEELRNVLNDAAASSSRNSSQGSGGGGWSSSDEEEEEADPMDQDEEGSGSGKNERFNAHRKAHYDEFRKVKELRSSGSFYEEEEEEDDGAKGSKSETTTNSRHTKGGNKELDATKTVSGTSSSSSPELI
binding [4]: binds
binding [5]: binds
binding [8]: binds
binding [9]: binds

B4: AtI-2 (expressed in protoplasts for Co-IP) (protein, UniProt Q9LTK0 1-191)
chain: B2 chain
binding [2]: binds

Other lines, results leading:

binding [1]: binds
binding [3]: binds
Molecule: AD-TOPP2 (from UniProt P48482 1-312) (enzyme)

binding [4]: binds
binding [5]: binds
Molecule: ABI1-cLUC (from UniProt P49597 1-434) (enzyme)

binding [10]: binds
binding [11]: binds
binding [12]: binds
binding [13]: binds
binding [14]: binds
binding [15]: binds
B1: AD-AtI-2 (protein, UniProt Q9LTK0 1-191)
chain: B2 chain

binding [16]: binds
B3: AtI-2-nLUC (protein, UniProt Q9LTK0 1-191)
chain: B2 chain
